Measurements reported in PubChem BioAssay AID743454 (Peter MacCallum Cancer Centre, 2014)

Test: 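Knock-downs lowering viability or raising caspase 3/7 activity in vorinostat-treated resistant cells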 (primary screen)
Cell system: human HCT116-VR colon cancer cells, selected for vorinostat resistance
Reagents: siRNA pool against human genes, 40 nM siRNA pool
Timing: vorinostat for 24 h, read-out about 72 h after transfection
Treatment: vorinostat at 2.5 µM final
Read-out: 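Two measures, CellTiter-Fluor viability and luminescent caspase 3/7 activity, each as fold change against same-plate mock wells, mean of duplicates, then screen-wide robust z-score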
Reading the numbers: viability robust z-score: higher = more viable cells than screen typical; caspase robust z-score: higher = more caspase 3/7 activity than screen typical
Rule for the call: 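Hits are knock-downs in viability class RV1/RV2 or caspase class CA1/CA2, excluding ones that killed cells in the no-drug cell-count arm; hits then retested with single siRNAs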
This is a random part of about 18,000 reagents. 450 of all reagents (2.5%) were called active. 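Single biological run; no consistent viability z cut-off exists, so the class columns, not z-scores, define the calls.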 No sequences are given here.

| viability hit class | caspase hit class | viability robust z-score | caspase robust z-score | activity call | gene knocked down |
| --- | --- | --- | --- | --- | --- |
| no change | no change | -1.56 | -1.04 | inactive | TNIP3 |
| no change | no change | -0.02 | 1.33 | inactive | TICAM1 |
| no change | no change | -1.06 | -0.73 | inactive | DDX3X |
| no change | no change | -0.05 | 1.87 | inactive | PRR21 |
| no change | no change | -1.39 | -1.46 | inactive | CYB561D2 |
| no change | no change | 0.57 | -0.92 | inactive | IDI1 |
| no change | no change | -0.2 | -1.01 | inactive | KRTAP21-2 |
| no change | no change | 0.72 | -0.06 | inactive | CSAG1 |
| no change | no change | -2.36 | 1.98 | inactive | MCM3 |
| no change | no change | -1.46 | 0.45 | inactive | SPTBN1 |
| no change | no change | 0.41 | 0.1 | inactive | ANKRD13B |
| no change | no change | 1.4 | 0.56 | inactive | PCDH15 |
| RV2 (reduced viability) | no change | -3.72 | 2.7 | active | CCL25 |
| no change | no change | -2.71 | 3.2 | inactive | CRABP1 |
| no change | no change | -1.23 | -0.4 | inactive | LRRC27 |
| no change | no change | -0.19 | 1.54 | inactive | TMEM169 |
| no change | no change | -0.88 | 0 | inactive | PPARD |
| no change | no change | -1.04 | 0.04 | inactive | ZPBP2 |
| no change | no change | 0.95 | 1.21 | inactive | BTLA |
| no change | no change | -0.47 | -1.4 | inactive | REEP3 |
| no change | no change | -1.94 | -0.22 | inactive | ELP2 |
| no change | no change | 0.44 | -0.98 | inactive | FSD1 |
| no change | no change | 0.9 | 0.09 | inactive | HEATR4 |
| no change | no change | 0.92 | -1.12 | inactive | SCFD2 |
| no change | no change | -0.37 | -0.57 | inactive | UBE3D |
| no change | no change | 0.94 | -0.08 | inactive | KRTAP10-8 |
| no change | no change | 2.28 | -0.44 | inactive | PARP2 |
| no change | no change | 0.64 | -0.61 | inactive | CLEC4M |
| no change | no change | -2.66 | 3.9 | inactive | MYLK2 |
| no change | no change | -0.52 | -0.14 | inactive | KCND3 |
| no change | no change | 0.77 | -0.21 | inactive | SSB |
| no change | no change | 0.6 | -0.81 | inactive | ACTR5 |
| no change | no change | -0.42 | -0.58 | inactive | ANXA7 |
| no change | no change | -0.81 | 0 | inactive | MCPH1 |
| no change | no change | 0.38 | 1.54 | inactive | CEACAM7 |
| no change | no change | 0.27 | 0.7 | inactive | IL4R |
| no change | no change | 0.43 | 2.42 | inactive | BEST3 |
| no change | no change | 0.16 | 1.08 | inactive | OR56A1 |
| no change | no change | -1.13 | -0.14 | inactive | CADM1 |
| no change | no change | 0.9 | 0.18 | inactive | EHMT2 |
| no change | no change | 0.05 | 2.11 | inactive | CCNI |
| no change | no change | 2.04 | 0.34 | inactive | OR10C1 |
| no change | no change | 0.49 | -0.46 | inactive | RTKN2 |
| no change | no change | 1 | -0.1 | inactive | RP1 |
| no change | no change | 0.62 | -0.44 | inactive | RFC1 |
| no change | no change | 0.34 | -1.12 | inactive | GPR179 |
| no change | no change | 0.29 | -0.7 | inactive | CD14 |
| no change | no change | 0.18 | 0.72 | inactive | P4HB |
| no change | no change | 0.08 | -0.79 | inactive | AXL |
| no change | no change | 2.4 | 1.13 | inactive | CHCHD3 |
| no change | no change | 0.43 | -0.15 | inactive | SLX9 |
| no change | no change | -0.66 | -0.62 | inactive | DMTF1 |
| no change | no change | 0.45 | 1.21 | inactive | EVL |
| no change | no change | 0.32 | -0.72 | inactive | IGFBP5 |
| no change | no change | -1.19 | 2.02 | inactive | UCN |
| no change | no change | 0.28 | 1.04 | inactive | ADAM11 |
| no change | no change | -0.03 | 2.22 | inactive | PLA2G4F |

8 entries from above, showing only “viability robust z-score”:
PRR21 = -0.05
CYB561D2 = -1.39
IDI1 = 0.57
KRTAP21-2 = -0.2
CSAG1 = 0.72
MCM3 = -2.36
SPTBN1 = -1.46
ANKRD13B = 0.41
